Data reported in PubChem BioAssay AID280 (DTP/NCI, 2004).
The list is a part of this screen's results and no random one: it gathers tests that were run many times, whatever their T/C, doses with no T/C, and many T/C values between a quarter and a half above the control. Other doses and runs of a compound stand elsewhere. T/C is the treated group as % of the vehicle group. Some entries give survivors of the animals treated and no T/C: the source files T/C as zero there, which appears to mark a toxic dose or a test without result, not a measured value. Some survivor counts are full or nearly so, which does not show that the dose was tolerated: the source hardly ever lists a survival T/C far under the control, and the zero likely stands for such cases as well. Survivors were counted at the toxicity check, usually on the fifth day, unless a day is given; later deaths do not show. Schedules are NCI's codes, taken here to give the interval after Q, in days (D) or hours (H), and the number of doses after X. Some entries were tested several times; the values are given in rising order. For survival time, the PubChem record calls one and a half times the control and up active, and a quarter to a half above the control has no call in these data; cut-offs in other NCI protocols can differ. Some T/C values carry the count of animals alive at the toxicity check (mostly the fifth day); without a count, all were alive then.

Test system: nude mice, LOX melanoma ip, survival T/C
Experiment: NCI In Vivo Anticancer Drug Screen. Data for tumor model Human Amelanotic Melanoma (LOX) (intraperitoneal) in NU/NU BALB/C (nude) mice
Details: T/C endpoint: median survival time, schedule: Q04DX003 (ip), higher T/C = longer survival
Experimental: The antitumor activity of compounds was measured in mice bearing transplantable tumors. Survival or tumor size were measured and the results are expressed as the measurement made in the treated group (T) divided by the measurement made in the vehicle treated control group (C). The tumor model used in this assay is Human Amelanotic Melanoma (LOX) (intraperitoneal) in NU/NU BALB/C (nude) mice

[1] = dose: 800.0 mg/kg/injection, vehicle: Klucel (hydroxypropylcellulose) (HPC)
[2] = dose: 150.0 mg/kg/injection, vehicle: saline with Tween-80
[3] = dose: 600.0 mg/kg/injection, vehicle: saline with Tween-80
[4] = dose: 1200.0 mg/kg/injection, vehicle: saline with Tween-80

COc1ccc2c(ccc3oc([N+](=O)[O-])cc32)c1
T/C (dose: 50.0 mg/kg/injection, vehicle: Klucel (hydroxypropylcellulose) (HPC)): 132 % of control
T/C (dose: 72.0 mg/kg/injection, vehicle: Klucel (hydroxypropylcellulose) (HPC)): 145 % of control
T/C (dose: 200.0 mg/kg/injection, vehicle: Klucel (hydroxypropylcellulose) (HPC)): 142 and 145 % of control
survivor count (dose: 333.33 mg/kg/injection, vehicle: Klucel (hydroxypropylcellulose) (HPC)): 6 of 6 on day 10
survivor count (dose: 555.56 mg/kg/injection, vehicle: Klucel (hydroxypropylcellulose) (HPC)): 0 of 6 on day 10
survivor count [1]: 5 of 6 on day 10

Cc1cc(=NO)cc(C)n1O
survivor count (dose: 1200.0 mg/kg/injection, vehicle: distilled water + alcohol): 1 of 6 on day 10

CCCCNP1(NCCCC)=NP(NCCCC)(NCCCC)=NP(NCCCC)(NCCCC)=NP(NCCCC)(NCCCC)=N1
T/C [2]: 132 and 142 % of control
survivor count [2]: 0 of 6 on day 10
survivor count (dose: 250.0 mg/kg/injection, vehicle: saline with Tween-80): 1 of 6 on day 10 and 2 of 6 on day 10
survivor count (dose: 300.0 mg/kg/injection, vehicle: saline with Tween-80): 0 of 6 on day 10
survivor count (dose: 417.0 mg/kg/injection, vehicle: saline with Tween-80): 2 of 6 on day 10
survivor count [3]: 0 of 6 on day 10
survivor count [4]: 0 of 6 on day 10

S=c1sc2ccccc2n1CN1CCOCC1
survivor count [2]: 5 of 6 on day 10
survivor count [3]: 4 of 6 on day 10
survivor count [4]: 1 of 6 on day 10

C=CC1(C)CC(=O)C2(O)C(C)(O1)C(OC(C)=O)C(O)C1C(C)(C)CCC(O)C12C (centres undefined)
survivor count (dose: 128.0 mg/kg/injection, vehicle: DMSO): 2 of 6 on day 10

CN1C2C=CC(=O)C1C1C(=O)N(c3ccccc3)C(=O)C12 (centres undefined)
survivor count [1]: 0 of 6 on day 10

OCC1OC(n2cnc3c2NC=NC[C@H]3O)CC1O (some centres undefined)
survivor count (dose: 32.0 mg/kg/injection, vehicle: saline): 6 of 6 on day 10

CCCCCC1c2cc(O)ccc2OC1N1CCOCC1 (centres undefined)
survivor count (dose: 100.0 mg/kg/injection, vehicle: saline with Tween-80): 6 of 6 on day 10
survivor count (dose: 400.0 mg/kg/injection, vehicle: saline with Tween-80): 5 of 6 on day 10

c1ccc2c3c(c4c(c2c1)CN(C1CCCCC1)CO4)OCN(C1CCCCC1)C3
survivor count (dose: 150.0 mg/kg/injection, vehicle: water): 6 of 6 on day 10
survivor count (dose: 300.0 mg/kg/injection, vehicle: water): 0 of 6 on day 10

C/C(=N\NC(=S)N1CCC1)c1ccccn1
survivor count (dose: 50.0 mg/kg/injection, vehicle: other): 3 of 6 on day 10

COc1cccc2c1[C@H]1CO[C@H]3C4C[C@H](C(=O)O)C([C@@H](C2)N13)N4C (some centres undefined)
T/C (dose: 2.5 mg/kg/injection, vehicle: water): 126 [5 of 6 alive on day 10] and 138 % of control
T/C (dose: 5.0 mg/kg/injection, vehicle: water): 146 % of control
T/C (dose: 10.0 mg/kg/injection, vehicle: water): 147 % of control
survivor count (dose: 40.0 mg/kg/injection, vehicle: water): 2 of 6 on day 10
